From PubChem BioAssay AID504834 (National Center for Advancing Translational Sciences (NCATS), 2011)
“And” between values parts separate entries of the source, which are not always exact repeats. Equal values may be shown once. The whole screen tested about 320,000 compounds, of which about 22,000 (6.9%) were called active. Inconclusive means that the source gave no clear call. Such entries were picked first, then a sample of the others. Calls follow the shape of the dose curve; as a rule, active = well fitted inhibition curve with a large enough effect; inconclusive = small, poorly fitted or top-dose-only effect, or another doubt; inactive = no such curve, though single readings can be large or run the other way. Potencies of inconclusive entries are doubtful fits and often do not repeat.

Test: Primary qHTS for delayed death inhibitors of the malarial parasite plastid, 96 hour incubation
Settings: P. falciparum luciferase reporter growth; series mostly up to 28.7 µM; activity change, negative = inhibition: at the top concentration
How it was run: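 Plates of compound plus infected erythrocytes (2% hematocrit, 0.05% parasitemia final) incubate 96 hours, 37 C, 5% CO2. Detection reagent added; reduced luminescence from the parasites' luciferase reporter flags inhibition.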
% is scaled to controls: 0 for no effect and ±100 for the full control effect; potency is read from the fitted curve at half-maximal effect.

Compound	Potency	activity change, negative = inhibition
CCc1ccccc1NC(=O)Cn1nnc(-c2cccs2)n1	inconclusive: 18.5 µM [inhibitor, single point]	
O=C(Cc1ccccc1F)NNC(=O)c1ccncc1		inactive: -9.75%
COc1ccc(-c2cc(=O)oc3cc(OCC(=O)N4C[C@H]5C[C@@H](C4)c4cccc(=O)n4C5)ccc23)cc1	inconclusive: 18.5 µM [inhibitor, single point]	
C/C(=N\Nc1ccccn1)c1ccc(C(C)C)cc1	inconclusive: 11.7 µM [inhibitor, single point]	
CCN(CC)S(=O)(=O)c1ccc(Cl)c(NC(=O)CSc2nnc(-c3cccs3)o2)c1	inconclusive: 18.5 µM [inhibitor, single point]	
O=C(COc1ccccc1)n1nc(-c2ccc(Cl)cc2)nc1NCc1ccco1		inactive: 35.4%
CN1CCN(c2cc(-c3cc(O)c4ncccc4c3)ccn2)CC1	inconclusive: 16.5 µM [inhibitor, single point] and inconclusive: 18.5 µM [inhibitor, single point]	
O=C(O)C1Nc2c(C(=O)N3CCOCC3)cccc2C2C=CCC12 (configuration not stated)		inactive: 0.316%
O=C(NNS(=O)(=O)c1ccc(C(F)(F)F)cc1)c1cnn(-c2ccccc2)c1C(F)(F)F		inactive: 63%
CCC1(c2ccccc2)NC(=O)N(CC(=O)Nc2ccc(N3CCCC3)cc2C)C1=O (configuration not stated)		inactive: 1.22%
Cc1ccc(N2CCC(N3CCN(C)C(CCO)C3)CC2)cc1 (configuration not stated)	inconclusive: 11.7 µM [inhibitor, single point]	
O=C(NC1CC2CCCC(C1)N2Cc1ccccc1)c1cccc(Cl)c1 (configuration not stated)		inactive: 14.5%
N#C/C(=C\c1ccc(O)c(O)c1)C(=O)NCc1ccccc1	inconclusive: 18.5 µM [inhibitor, single point]	
COc1ccc(N(CC(=O)N2CCN(c3cccc(C)c3)C(C)C2)S(=O)(=O)c2c(C)n[nH]c2C)cc1 (configuration not stated)	inconclusive: 1.85 µM [inhibitor, full curve, poor fit]	
COc1cc(/C=C/C(=O)OC(C)C(=O)c2ccccc2)cc(OC)c1OC (configuration not stated)	inconclusive: 11.7 µM [inhibitor, single point]	
CSCc1cc(N(C)c2ccccc2)nc(-c2ccccn2)n1	inconclusive: 0.329 µM [inhibitor, full curve, poor fit]	
O=C(Nc1nnc(-c2ccco2)o1)c1ccc2ccccc2c1		inactive: -9.59%
CC(c1ccccn1)N(Cc1ccco1)C(=S)Nc1cccc(F)c1 (configuration not stated)	inconclusive: 1.04 µM [inhibitor, partial curve, poor fit]	
Cc1ccc(S(=O)(=O)N2CCCCC2)cc1NC(=O)c1cc2ccccc2o1	inconclusive: 0.828 µM [inhibitor, full curve, poor fit]	
CC1Cc2ccccc2N1S(=O)(=O)c1cnc[nH]1 (configuration not stated)	inconclusive: 14.7 µM [inhibitor, partial curve, poor fit]	
COc1ccc(NC(=O)N2CCC(n3nnc4cc(C)ccc43)CC2)cc1	inconclusive: 18.5 µM [inhibitor, single point]	
O=C1ON=C(c2ccccc2)/C1=C/c1ccc(O)cc1		inactive: -22.1%
Cc1cc(N(C)Cc2ccccc2)nc2cc(O)ccc12		inactive: 3.05%
Cc1sc2nc(SCC(=O)Nc3ccccc3F)[nH]c(=O)c2c1C	inconclusive: 18.5 µM [inhibitor, single point]	

Copied from the list.
Potency, `CN1CCN(c2cc(-c3cc(O)c4ncccc4c3)ccn2)CC1` reads inconclusive: 16.5 µM [inhibitor, single point] and inconclusive: 18.5 µM [inhibitor, single point]
Potency, `CCc1ccccc1NC(=O)Cn1nnc(-c2cccs2)n1` reads inconclusive: 18.5 µM [inhibitor, single point]

Later entries:

Compound	Potency	activity change, negative = inhibition
CC(C)c1ccc(N2C(=O)CC(Sc3ncn[nH]3)C2=O)cc1 (configuration not stated)		inactive: -3.87%
O=C1CN(C(=O)c2ccc(F)cc2)c2ccccc2N1	inconclusive: 18.5 µM [inhibitor, partial curve, poor fit]	
CCN(CC)CCN1C(=O)C2C(C(=O)Nc3ccc(C(C)C)cc3)C3C=CC2(O3)C1C(=O)NC1CCCCC1 (configuration not stated)		inactive: -11.4%
Clc1ccc(OCc2nn3c(C4CCCCC4)nnc3s2)cc1	active: 9.28 µM	
O=C(CCc1ccc(F)c(F)c1)NC1CCCN(Cc2ccc(Cl)cc2)C1 (configuration not stated)	active: 9.28 µM	
CC(C)c1ccc(OCC(O)CN2CCN(c3ccccc3)CC2)cc1 (configuration not stated)	inconclusive: 8.28 µM [inhibitor, partial curve]	
Cc1ccc(CN2CC(C(=O)NC3CCCC(C)C3C)CC2=O)cc1 (configuration not stated)	inconclusive: 5.86 µM [inhibitor, partial curve, poor fit]	
CCN(CC(=O)Nc1c(C(=O)OC)[nH]c2ccc(C)cc12)c1ccc2c(c1)OCO2	inconclusive: 14.7 µM [inhibitor, partial curve, poor fit]	
CCN1C(=O)[C@H]2[C@@H](c3ccc(-c4ccc(F)cc4)cc3)N3CCCC[C@@]3(C(=O)OC)[C@H]2C1=O	active: 13.1 µM	
Cc1ccccc1-n1c(O)cc(=O)[nH]c1=S		inactive: 9.67%
O=C(c1ccccc1)c1ccc2n1CC[C@H]2C(=O)O		inactive: -7.96% [at 12.8 µM]
CC(C)(C)c1ccc(CN(Cc2ccco2)Cc2nnnn2C2CCCC2)cc1	active: 5.22 µM	
COc1ccc(C2C(C#N)=C(N)N3C(=C2C#N)Sc2ccccc23)cc1 (configuration not stated)		inactive: -3.9%
Cc1ccc2oc(=O)c3cc(C(=O)NCCCN4CCc5ccccc5C4)sc3c2c1	active: 11.7 µM	
Cc1[nH]c2ccc3c(ncn3CCC#N)c2c1C	inconclusive: 18.5 µM [inhibitor, single point]	
CCSc1nc2ccc(OC)cc2cc1C#N		inactive: -0.383%
CC1(C)CC(=O)c2cc(OCC(=O)NCCCN3CCN(c4ccc(F)cc4)CC3)ccc2O1		inactive: 9.87%
CCN1C(=O)/C(=C2/C=Cc3ccccc3N2CC)SC1=S	inconclusive: 18.5 µM [inhibitor, single point]	
CCC(=O)Nc1ccc(C(=O)Nc2ccc(OC)cc2[N+](=O)[O-])cc1		inactive: -26.2%
Cc1ccc(CNC(=O)C2CC(c3ccccc3C(F)(F)F)=NO2)cc1 (configuration not stated)		inactive: 74%
CCOC(=O)N1CCN(C2=C(NS(=O)(=O)c3ccc(NC(C)=O)cc3)C(=O)c3ccccc3C2=O)CC1	active: 9.28 µM	
COCC1CCN(C(=O)C2CCC(=O)N(Cc3cccc(F)c3)C2)CC1 (configuration not stated)		inactive: 11.9%
COc1ccc(S(=O)(=O)N2CCCOC2CNC(=O)C(=O)NCCc2ccco2)cc1 (configuration not stated)	inconclusive: 9.28 µM [inhibitor, single point]	

Compounds listed so far that have a CF3 group:
Compound	Potency	activity change, negative = inhibition
O=C(NNS(=O)(=O)c1ccc(C(F)(F)F)cc1)c1cnn(-c2ccccc2)c1C(F)(F)F		inactive: 63%
Cc1ccc(CNC(=O)C2CC(c3ccccc3C(F)(F)F)=NO2)cc1 (configuration not stated)		inactive: 74%
